From US20080241130A1
These are yes or no findings as the source states them, for the method shown. Some results given as binding are weak or reduced against the parent protein; the word gives no strength.

The chains behind the UniProt entries cited, without tags or fusion partners. Where a name states a change or a piece, a line headed by the entry shows the natural chain unless it says otherwise.
UniProt Q16552: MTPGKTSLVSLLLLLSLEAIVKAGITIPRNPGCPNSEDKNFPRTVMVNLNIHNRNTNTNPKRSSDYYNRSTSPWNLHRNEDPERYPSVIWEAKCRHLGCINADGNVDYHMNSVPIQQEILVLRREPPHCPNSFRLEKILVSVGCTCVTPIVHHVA
UniProt Q96PD4: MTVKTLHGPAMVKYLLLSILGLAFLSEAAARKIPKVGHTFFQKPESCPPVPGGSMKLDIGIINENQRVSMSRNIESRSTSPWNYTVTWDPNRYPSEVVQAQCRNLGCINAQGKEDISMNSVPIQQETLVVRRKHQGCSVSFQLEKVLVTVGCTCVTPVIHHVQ

Assays:
human IL-17R.Fc (human) [1] = test: SPR (Biacore 2000), receptor.Fc amine-coupled, cytokine injected
human IL-17RC.Fc (human) [2] = test: as above
human IL-17RC.Fc (human) [3] = test: indirect sandwich ELISA; receptor.Fc captured on goat anti-human IgG-Fc, biotinylated cytokine titrated
human IL-17R.Fc (human) [4] = test: indirect sandwich ELISA: IL-17R.Fc captured on goat anti-human IgG-Fc, biotinylated cytokine titrated, Poly-HRP streptavidin
human IL-17RC.Fc (human) [5] = test: indirect sandwich ELISA: IL-17RC.Fc captured on goat anti-human IgG-Fc, biotinylated cytokine titrated, Poly-HRP streptavidin

Measured: binding

human IL-17A (from UniProt Q16552 24-155) (ligand)
binds: all assays above

human IL-17F/IL-17A heterodimer (from UniProt Q96PD4 31-163; Q16552 24-155) (ligand)
binds: all assays above
